Test results taken from PubChem BioAssay AID493014 (National Center for Advancing Translational Sciences (NCATS), 2011).
In all, about 340,000 compounds went through this assay and about 170 (0.05%) were called active. This list was built around the results that the source calls inconclusive (neither active nor inactive); the mix of calls is not that of the screen. Calls come from the whole dose curve; as a rule, active = well fitted inhibition curve with a large enough effect in the signal ratio, with a control signal flat (not every such curve was filed as active); inconclusive = small, poorly fitted or top-dose-only effect, or effect the other way, or a change in a side signal; inactive = flat fitted curve, though single readings scatter; the % refers to the signal ratio. Potencies of inconclusive entries are doubtful fits and often do not repeat.

Test: qHTS Assay to Find Inhibitors of Chronic Active B-Cell Receptor Signaling;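 for activity change, negative = inhibition: plate controls were basal doxycycline-induced cells for no effect and cells given 10 µM MG132 for full effect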
Conditions: ABC-DLBCL IkBa-CBG/CBR reporter, luminescence ratio (green luciferase fused to IkBa over red control in TMD8 lymphoma cells), 4 h; activity change, negative = inhibition: at 46.1 µM (top of the series)
Procedure, shortened: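 Doxycycline induced both beetle luciferases in TMD8 lymphoma cells; IKK-driven degradation limits the IkappaBalpha-fused green signal, while red luminescence normalises for cell number and nonspecific effects. Compounds tested up to 46 uM, 4 hrs.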
Potency is the fitted concentration of half-maximal effect.

| Structure (SMILES) | activity change, negative = inhibition | Potency |
| --- | --- | --- |
| Cc1cc(C)c(C)c(OCCCCN2CCCCC2)c1 | inactive |  |
| Nc1nc(SCC(=O)NC2CCCCCC2)[nH]c(=O)c1-c1ccccc1 |  | inconclusive: 29.1 µM [falling, single point] |
| Cc1cc(C)c2cc(C(=O)N3CCC(C(=O)c4ccc(F)cc4)CC3)[nH]c2c1 |  | inconclusive: 35.5 µM [falling, single point] |
| COC(=O)c1c(C(=O)OC)c(C)n(Cc2cccnc2)c1C | inconclusive: -2.25% |  |
| CCOCCCNC(=S)N1CCC(NC(=O)C2CCCCC2)CC1 | inconclusive: 5.57% |  |
| CCOC(=O)N1CC=C2C(C#N)=C(N)C(C#N)(C#N)[C@H](c3cccs3)[C@H]2C1 | inconclusive: -14.4% |  |
| Cc1ccc(C)c(N2C(=O)CC(Cc3ccc(Br)cc3)C2=O)c1 (stereo not given) | inactive |  |
| NC(=S)N/N=C/C=C/c1ccccc1 |  | inconclusive: 20.6 µM [falling, single point] |
| CSCCC(NC(=O)c1ccc(Cl)cc1Cl)C(=O)OC1CCCCC1=O (stereo not given) | inconclusive: -5.99% |  |
| CCn1cc(/C=N\NC(=O)c2ccccc2Cl)cn1 |  | inconclusive: 16.4 µM [falling, single point] |
| CCCCn1c(=O)[nH]c(=O)c2c1nc(Cn1ncc(Cl)c(Cl)c1=O)n2CCC |  | inconclusive: 35.5 µM [rising, single point] |
| C=CCNc1nc(-c2ccc([N+](=O)[O-])cc2)cs1 | inconclusive: -7.5% |  |
| CCOC(=O)c1[nH]c2ccc(F)cc2c1NC(=O)c1cc(OC)c(OC)c(OC)c1 | inactive |  |
| c1ccc(-c2ccccc2OCCCN2CCCCCC2)cc1 | inconclusive: -2.79% |  |
| CN(Cc1cccc(-n2cccn2)c1)C(=O)CCc1nnc(C2CCCCC2)o1 | inconclusive: 22.8% |  |
| Cc1ccc(-n2[nH]c(C)c(/C=N/NC(=O)c3ccc(O)cc3O)c2=O)cc1 |  | inconclusive: 12.6 µM [falling, partial curve] |
| CCC(=O)Oc1ccc(C(=O)Nc2cccc(NC(=O)c3ccco3)c2)cc1 |  | inconclusive: 8.91 µM [falling, partial curve, poor fit] |
| CC1(C)O[C@@H]2C[C@H]3[C@@H]4CCC5=CC(=O)CC[C@]5(C)[C@@]4(F)[C@@H](O)C[C@]3(C)[C@]2(C(=O)CCl)O1 | inconclusive: -24.4% |  |
| COc1cccc(CC(NC(C)=O)C(=O)NC2CCN(C(=O)NCc3ccccc3)CC2)c1 (stereo not given) |  | inconclusive: 25.1 µM [rising, partial curve] |
| CCCc1cc(=O)[nH]c2nnc(SCC(=O)N3CC(C)OC(C)C3)n12 (stereo not given) | inconclusive: 11.6% |  |
| CCN1CCN(C(=O)C2CCC(CNS(=O)(=O)c3ccccc3)CC2)CC1 (stereo not given) | inconclusive: 28.1% |  |
| O=C(O)c1cc([N+](=O)[O-])cc2c1C=Cc1ccccc1O2 | inactive |  |
| COc1ccccc1-c1sc2ccccc2c1-c1ccc2c(c1)OCCO2 | inconclusive: 14.9% |  |
| CC(/C=N/NC(=O)c1sc(N)nc1C)=C\c1ccccc1 | inconclusive: -9.56% |  |
| COc1ccc(N2CC(C(=O)N[C@@H](C)C(=O)NCc3ccccc3OC)CC2=O)cc1 (stereo not given in full) | inactive |  |

| Structure (SMILES) | activity change, negative = inhibition | Potency |
| --- | --- | --- |
| COc1ccc(N2CCN(C3CCCCC3NS(=O)(=O)c3ccc(Cl)cc3)CC2)cc1 (stereo not given) | inconclusive: 1.07% |  |
| COc1ccc(C)cc1NC(=O)C1CCN(S(=O)(=O)c2cccs2)CC1 | inactive |  |
| Cc1ccc(Cn2nc(C)c(C(=O)N3CCN(S(=O)(=O)/C=C/c4ccccc4)CC3)c2C)cc1 | inconclusive: -5.53% |  |
| C/C(CC(=O)Nc1ccc(Cl)c(C(F)(F)F)c1)=N\NC(N)=S |  | inconclusive: 22.4 µM [falling, partial curve] |
| CCn1cc(C(=O)O)c(=O)c2cc(F)c(N3CCN(C(=S)Nc4ccccc4OC)CC3)cc21 | inconclusive: -3.19% |  |
| CCOC(=O)c1ccc(CN(Cc2ccc(F)cc2)S(=O)(=O)c2cc(C(=O)Nc3cccc(C(F)(F)F)c3)ccc2F)cc1 | inactive |  |
| COc1cc(C(=O)NCC(c2cccnc2)N2CCN(c3ccccc3)CC2)cc(OC)c1OC (stereo not given) | inconclusive: 6.46% |  |
| COc1ccc(NC(=O)c2oc3ccccc3c2NC(=O)c2ccc3c(c2)OCO3)cc1 | inconclusive: -2.8% |  |
| O=C(O)c1ccc(N/N=C/c2ccncc2)cc1 |  | inconclusive: 4.47 µM [rising, full curve, poor fit] |
| CC(C)c1ccc2[nH]c3c(c2c1)CCC/C3=N\NC(=O)c1ccncc1 | inconclusive: 11.1% |  |
| O=C(CSc1cccc[n+]1[O-])c1cc(Cl)ccc1Cl | inconclusive: -55.6% [cytotoxic] |  |
| Oc1ccc(Oc2ncc(Cl)cc2Cl)cc1 |  | inconclusive: 35.5 µM [falling, single point] |
| Cc1c(OCC(=O)N2CCC(C(=O)O)CC2)ccc2c3c(c(=O)oc12)CCC3 |  | inconclusive: 3.55 µM [falling, partial curve, poor fit] |
| CCC(CC)NC(=O)c1oc2ccccc2c1COc1ccccc1 | inconclusive: 21.6% |  |
| Cc1cc(NC(=O)CSc2nnc(C3COc4ccccc4O3)n2N)no1 (stereo not given) | inconclusive: 8.45% |  |
| BrC(/C=N/N1CCN(Cc2ccccc2)CC1)=C/c1ccccc1 | inconclusive: 2.68% |  |
| COC(=O)c1cc2occc2n1Cc1nc(-c2ccccc2F)oc1C | inconclusive: 7.56% |  |
| CCOC(=O)c1sc2nc(CC(=O)OC)nc(N(C)CCc3ccccn3)c2c1C | inconclusive: 10.2% |  |
| Cc1ccc(N(CCCCN2C(=O)c3ccccc3C2=O)C(=O)c2ccc(Cl)s2)cc1 | inactive |  |
| COc1ccc(OC)c2[nH]c(C(=O)N/N=C/c3ccccc3O)cc12 | inactive |  |
| N#C/C(=C(/O)c1ccc(Br)s1)c1nc2ccccc2[nH]1 |  | inconclusive: 14.1 µM [falling, partial curve, poor fit] |
| O=C1C2CC=C(Cl)CC2C(=O)N1CC1OCCc2ccccc21 (stereo not given) | inactive |  |
| CCNCc1ccccc1OCc1ccccc1 | inactive |  |
| C=CCc1cc(OC)ccc1OCCN(C)Cc1ccccc1 | inconclusive: 3.45% |  |
| O=C(CSc1nc(=O)n2ccccc2n1)Nc1ccc2c(c1)OCO2 | inconclusive: 6.25% |  |

Looked up one by one from above:

| Structure (SMILES) | activity change, negative = inhibition | Potency |
| --- | --- | --- |
| CCN1CCN(C(=O)C2CCC(CNS(=O)(=O)c3ccccc3)CC2)CC1 (stereo not given) | inconclusive: 28.1% |  |
| COc1ccc(OC)c2[nH]c(C(=O)N/N=C/c3ccccc3O)cc12 | inactive |  |
| c1ccc(-c2ccccc2OCCCN2CCCCCC2)cc1 | inconclusive: -2.79% |  |
| CCOC(=O)c1[nH]c2ccc(F)cc2c1NC(=O)c1cc(OC)c(OC)c(OC)c1 | inactive |  |
